These are yes or no findings as the source states them, for the method shown. In cells and extracts the contact can be indirect. A yes stands for co-enrichment or nearness to the bait. Other partners may have been found. For some assays here: A no says only that the protein was not detected with the bait.
Experiments:
Experiment in all cases: affinity purification with mass spectrometry; endogenous immunoprecipitation (antibodies to PCGF1, BCOR, DPPA4, NANOG or OCT4) from nuclear lysate of undifferentiated NT2 cells, trypsin digest on beads, label-free mass spectrometry (Q Exactive), volcano plot against IgG beads
[1] = biological target: T1, DPPA4 (human (endogenous in NT2)) (UniProt Q7L190)
T1 sequence: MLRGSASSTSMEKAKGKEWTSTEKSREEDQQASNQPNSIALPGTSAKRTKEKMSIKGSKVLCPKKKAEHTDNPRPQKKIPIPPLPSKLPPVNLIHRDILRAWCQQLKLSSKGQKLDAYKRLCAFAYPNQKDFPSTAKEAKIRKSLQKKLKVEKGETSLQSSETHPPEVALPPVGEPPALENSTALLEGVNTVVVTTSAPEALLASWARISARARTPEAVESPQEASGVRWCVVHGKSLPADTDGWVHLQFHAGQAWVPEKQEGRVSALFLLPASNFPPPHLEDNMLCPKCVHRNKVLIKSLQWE

Sequences of proteins named here, by UniProt entry; tags and fusion partners are left off.
UniProt Q01860: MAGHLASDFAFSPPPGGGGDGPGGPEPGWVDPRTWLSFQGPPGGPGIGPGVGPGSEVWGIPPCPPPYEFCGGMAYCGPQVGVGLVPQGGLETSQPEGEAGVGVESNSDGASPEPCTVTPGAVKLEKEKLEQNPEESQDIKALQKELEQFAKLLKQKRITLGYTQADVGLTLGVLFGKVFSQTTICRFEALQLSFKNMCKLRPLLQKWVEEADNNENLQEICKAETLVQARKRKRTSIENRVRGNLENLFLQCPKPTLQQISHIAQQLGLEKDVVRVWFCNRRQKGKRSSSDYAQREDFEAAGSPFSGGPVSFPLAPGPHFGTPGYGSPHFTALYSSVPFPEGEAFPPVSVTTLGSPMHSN
UniProt Q9BSM1: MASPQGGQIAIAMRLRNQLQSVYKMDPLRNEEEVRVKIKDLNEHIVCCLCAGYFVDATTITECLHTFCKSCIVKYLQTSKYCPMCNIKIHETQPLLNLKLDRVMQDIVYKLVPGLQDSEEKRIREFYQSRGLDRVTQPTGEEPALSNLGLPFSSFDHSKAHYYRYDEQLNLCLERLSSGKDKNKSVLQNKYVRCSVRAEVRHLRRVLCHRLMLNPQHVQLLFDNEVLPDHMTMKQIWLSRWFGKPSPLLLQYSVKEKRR
UniProt Q9H9S0: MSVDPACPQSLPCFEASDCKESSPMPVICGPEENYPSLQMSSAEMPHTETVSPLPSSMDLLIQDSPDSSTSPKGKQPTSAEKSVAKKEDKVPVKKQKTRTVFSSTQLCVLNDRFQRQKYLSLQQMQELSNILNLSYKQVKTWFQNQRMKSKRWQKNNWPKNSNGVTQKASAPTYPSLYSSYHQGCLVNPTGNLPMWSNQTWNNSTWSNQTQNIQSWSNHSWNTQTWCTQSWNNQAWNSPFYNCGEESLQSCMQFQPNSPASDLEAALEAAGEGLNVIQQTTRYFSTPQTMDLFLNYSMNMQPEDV
UniProt Q6W2J9: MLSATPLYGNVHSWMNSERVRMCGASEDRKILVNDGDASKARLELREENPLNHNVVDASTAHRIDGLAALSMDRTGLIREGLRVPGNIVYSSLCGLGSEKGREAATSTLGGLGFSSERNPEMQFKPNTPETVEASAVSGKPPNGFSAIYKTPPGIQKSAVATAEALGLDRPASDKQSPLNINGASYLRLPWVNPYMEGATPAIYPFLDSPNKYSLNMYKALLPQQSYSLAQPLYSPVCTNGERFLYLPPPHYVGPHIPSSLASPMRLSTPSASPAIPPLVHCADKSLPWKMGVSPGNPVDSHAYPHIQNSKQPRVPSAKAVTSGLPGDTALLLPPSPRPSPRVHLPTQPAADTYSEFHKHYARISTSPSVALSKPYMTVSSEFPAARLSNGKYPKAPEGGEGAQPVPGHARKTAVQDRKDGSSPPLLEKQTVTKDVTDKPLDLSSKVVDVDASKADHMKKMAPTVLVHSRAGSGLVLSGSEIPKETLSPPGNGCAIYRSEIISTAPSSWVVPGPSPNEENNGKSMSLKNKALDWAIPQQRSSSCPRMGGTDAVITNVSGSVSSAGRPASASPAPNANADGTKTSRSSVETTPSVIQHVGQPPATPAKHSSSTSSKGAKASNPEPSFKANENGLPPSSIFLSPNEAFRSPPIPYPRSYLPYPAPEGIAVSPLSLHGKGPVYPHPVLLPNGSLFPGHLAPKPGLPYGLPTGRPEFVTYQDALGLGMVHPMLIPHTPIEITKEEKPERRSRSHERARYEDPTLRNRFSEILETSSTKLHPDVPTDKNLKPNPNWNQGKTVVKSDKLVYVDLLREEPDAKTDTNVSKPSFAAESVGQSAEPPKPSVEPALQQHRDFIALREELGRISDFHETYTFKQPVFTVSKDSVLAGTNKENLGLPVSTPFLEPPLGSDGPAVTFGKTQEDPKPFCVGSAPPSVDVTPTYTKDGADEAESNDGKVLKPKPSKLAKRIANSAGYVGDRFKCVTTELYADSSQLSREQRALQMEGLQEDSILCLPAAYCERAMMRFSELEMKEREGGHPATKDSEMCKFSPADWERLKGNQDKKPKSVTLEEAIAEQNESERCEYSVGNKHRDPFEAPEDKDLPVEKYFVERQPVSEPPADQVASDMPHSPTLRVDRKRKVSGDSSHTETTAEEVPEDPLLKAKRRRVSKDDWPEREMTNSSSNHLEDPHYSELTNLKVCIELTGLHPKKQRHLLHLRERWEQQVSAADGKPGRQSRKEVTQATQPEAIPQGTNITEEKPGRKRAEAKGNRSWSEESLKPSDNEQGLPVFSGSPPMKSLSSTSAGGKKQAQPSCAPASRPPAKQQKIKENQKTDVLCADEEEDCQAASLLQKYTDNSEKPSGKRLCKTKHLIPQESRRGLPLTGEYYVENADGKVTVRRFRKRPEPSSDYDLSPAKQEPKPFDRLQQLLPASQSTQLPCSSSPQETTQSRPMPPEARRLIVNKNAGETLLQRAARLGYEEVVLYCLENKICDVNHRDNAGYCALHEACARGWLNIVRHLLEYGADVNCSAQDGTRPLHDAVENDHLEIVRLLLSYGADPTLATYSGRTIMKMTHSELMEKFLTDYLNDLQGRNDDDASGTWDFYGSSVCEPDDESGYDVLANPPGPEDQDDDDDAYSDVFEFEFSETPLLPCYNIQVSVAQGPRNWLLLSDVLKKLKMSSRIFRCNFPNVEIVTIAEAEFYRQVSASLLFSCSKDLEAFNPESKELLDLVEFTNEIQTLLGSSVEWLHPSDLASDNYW
UniProt P68400: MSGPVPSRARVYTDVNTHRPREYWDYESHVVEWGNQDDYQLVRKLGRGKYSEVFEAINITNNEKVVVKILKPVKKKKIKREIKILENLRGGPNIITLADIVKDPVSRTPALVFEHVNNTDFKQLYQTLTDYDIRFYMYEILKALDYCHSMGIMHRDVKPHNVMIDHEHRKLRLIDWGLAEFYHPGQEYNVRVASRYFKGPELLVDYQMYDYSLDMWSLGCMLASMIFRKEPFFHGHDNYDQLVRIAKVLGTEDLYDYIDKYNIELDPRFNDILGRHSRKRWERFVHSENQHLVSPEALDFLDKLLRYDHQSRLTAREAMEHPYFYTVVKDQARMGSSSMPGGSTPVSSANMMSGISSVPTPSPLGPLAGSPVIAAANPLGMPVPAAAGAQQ
UniProt Q16531: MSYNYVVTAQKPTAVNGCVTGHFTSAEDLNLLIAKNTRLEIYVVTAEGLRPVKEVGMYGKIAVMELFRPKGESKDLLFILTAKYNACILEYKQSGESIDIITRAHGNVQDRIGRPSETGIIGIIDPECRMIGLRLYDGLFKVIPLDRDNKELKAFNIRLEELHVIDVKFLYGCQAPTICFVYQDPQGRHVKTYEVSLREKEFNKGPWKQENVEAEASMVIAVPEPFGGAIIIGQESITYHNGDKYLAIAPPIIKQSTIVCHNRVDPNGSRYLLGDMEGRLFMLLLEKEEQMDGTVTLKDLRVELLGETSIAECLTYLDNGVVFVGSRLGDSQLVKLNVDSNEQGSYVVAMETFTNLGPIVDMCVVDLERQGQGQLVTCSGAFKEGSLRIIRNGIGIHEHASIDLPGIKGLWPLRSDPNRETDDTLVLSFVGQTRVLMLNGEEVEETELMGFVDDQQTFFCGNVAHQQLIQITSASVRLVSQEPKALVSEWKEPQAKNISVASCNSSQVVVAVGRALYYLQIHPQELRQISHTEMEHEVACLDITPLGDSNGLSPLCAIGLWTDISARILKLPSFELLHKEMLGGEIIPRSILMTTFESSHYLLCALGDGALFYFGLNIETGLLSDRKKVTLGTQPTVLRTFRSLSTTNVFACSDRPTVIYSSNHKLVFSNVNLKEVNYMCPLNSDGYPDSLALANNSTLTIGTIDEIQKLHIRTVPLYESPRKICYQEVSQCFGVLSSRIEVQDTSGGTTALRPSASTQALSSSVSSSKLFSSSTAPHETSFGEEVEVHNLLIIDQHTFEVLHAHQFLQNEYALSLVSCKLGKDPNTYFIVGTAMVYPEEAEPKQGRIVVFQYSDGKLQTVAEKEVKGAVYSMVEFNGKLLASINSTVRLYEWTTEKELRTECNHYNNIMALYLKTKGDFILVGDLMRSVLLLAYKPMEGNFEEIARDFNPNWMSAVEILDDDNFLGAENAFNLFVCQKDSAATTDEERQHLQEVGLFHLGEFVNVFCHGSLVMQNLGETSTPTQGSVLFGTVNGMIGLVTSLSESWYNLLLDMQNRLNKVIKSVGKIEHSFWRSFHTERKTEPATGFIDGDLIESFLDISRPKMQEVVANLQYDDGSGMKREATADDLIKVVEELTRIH
UniProt Q969R5: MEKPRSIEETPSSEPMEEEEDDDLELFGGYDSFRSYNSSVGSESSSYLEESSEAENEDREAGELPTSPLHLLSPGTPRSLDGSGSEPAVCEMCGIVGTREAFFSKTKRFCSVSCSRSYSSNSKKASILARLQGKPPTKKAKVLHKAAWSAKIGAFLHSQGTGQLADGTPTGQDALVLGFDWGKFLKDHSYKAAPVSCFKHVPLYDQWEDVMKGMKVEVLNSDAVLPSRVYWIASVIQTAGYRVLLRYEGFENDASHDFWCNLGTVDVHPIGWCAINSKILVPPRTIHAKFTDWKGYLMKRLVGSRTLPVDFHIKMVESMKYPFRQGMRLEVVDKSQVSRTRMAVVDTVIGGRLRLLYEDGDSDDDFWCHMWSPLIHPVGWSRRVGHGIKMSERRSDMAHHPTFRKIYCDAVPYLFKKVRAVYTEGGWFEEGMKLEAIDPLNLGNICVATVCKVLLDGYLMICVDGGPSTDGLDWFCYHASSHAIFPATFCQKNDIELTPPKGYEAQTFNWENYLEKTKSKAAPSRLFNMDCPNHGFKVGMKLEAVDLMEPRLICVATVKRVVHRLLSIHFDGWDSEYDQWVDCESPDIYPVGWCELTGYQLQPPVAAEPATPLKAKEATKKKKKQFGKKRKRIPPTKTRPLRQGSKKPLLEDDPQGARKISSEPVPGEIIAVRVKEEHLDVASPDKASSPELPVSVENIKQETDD
UniProt P35226: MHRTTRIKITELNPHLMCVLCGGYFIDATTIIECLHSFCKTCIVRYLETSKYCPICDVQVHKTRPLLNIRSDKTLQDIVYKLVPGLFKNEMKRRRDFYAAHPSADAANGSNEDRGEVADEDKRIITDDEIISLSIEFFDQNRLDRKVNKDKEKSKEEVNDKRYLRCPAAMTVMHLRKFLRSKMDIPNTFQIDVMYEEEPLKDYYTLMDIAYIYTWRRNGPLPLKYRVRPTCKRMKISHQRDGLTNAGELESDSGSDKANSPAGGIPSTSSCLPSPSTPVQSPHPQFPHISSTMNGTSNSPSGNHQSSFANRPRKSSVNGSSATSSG
UniProt P63208: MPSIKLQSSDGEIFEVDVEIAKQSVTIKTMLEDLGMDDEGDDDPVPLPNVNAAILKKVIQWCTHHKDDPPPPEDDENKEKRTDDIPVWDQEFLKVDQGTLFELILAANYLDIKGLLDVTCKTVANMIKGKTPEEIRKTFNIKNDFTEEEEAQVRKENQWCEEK
UniProt Q93009: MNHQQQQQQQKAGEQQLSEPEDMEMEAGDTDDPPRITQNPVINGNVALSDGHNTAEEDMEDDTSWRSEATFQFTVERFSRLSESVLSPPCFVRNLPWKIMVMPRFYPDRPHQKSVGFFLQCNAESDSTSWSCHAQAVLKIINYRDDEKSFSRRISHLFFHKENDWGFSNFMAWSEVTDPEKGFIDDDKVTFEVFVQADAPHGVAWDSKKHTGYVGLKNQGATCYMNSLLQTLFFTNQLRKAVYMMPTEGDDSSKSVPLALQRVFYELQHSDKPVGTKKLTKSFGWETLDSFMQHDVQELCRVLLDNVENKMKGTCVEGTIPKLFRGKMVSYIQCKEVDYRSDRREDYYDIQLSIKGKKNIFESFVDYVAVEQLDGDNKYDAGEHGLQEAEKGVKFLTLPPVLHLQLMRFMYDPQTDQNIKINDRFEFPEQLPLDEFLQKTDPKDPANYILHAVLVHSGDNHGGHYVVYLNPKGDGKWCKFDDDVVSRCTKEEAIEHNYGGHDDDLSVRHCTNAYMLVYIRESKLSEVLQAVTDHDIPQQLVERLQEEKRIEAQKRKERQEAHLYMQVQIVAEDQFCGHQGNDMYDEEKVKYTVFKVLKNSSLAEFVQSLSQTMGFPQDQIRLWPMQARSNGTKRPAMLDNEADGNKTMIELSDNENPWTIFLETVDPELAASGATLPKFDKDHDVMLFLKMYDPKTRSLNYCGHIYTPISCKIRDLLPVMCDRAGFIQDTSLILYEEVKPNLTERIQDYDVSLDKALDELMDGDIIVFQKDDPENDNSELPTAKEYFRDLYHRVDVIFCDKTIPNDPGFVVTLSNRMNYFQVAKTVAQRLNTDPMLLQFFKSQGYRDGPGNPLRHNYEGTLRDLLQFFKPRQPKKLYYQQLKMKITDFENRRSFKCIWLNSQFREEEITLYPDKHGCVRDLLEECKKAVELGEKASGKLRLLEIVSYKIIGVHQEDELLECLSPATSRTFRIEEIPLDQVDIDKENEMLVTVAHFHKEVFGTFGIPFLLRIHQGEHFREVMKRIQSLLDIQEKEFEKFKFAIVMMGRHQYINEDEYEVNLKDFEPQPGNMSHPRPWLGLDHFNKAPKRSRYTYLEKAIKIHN

[2] = biological target: OCT4 (human (endogenous in NT2)) (UniProt Q01860)
[3] = biological target: PCGF1 (human (endogenous in NT2)) (UniProt Q9BSM1)
[4] = biological target: NANOG (human (endogenous in NT2)) (UniProt Q9H9S0)
[5] = biological target: BCOR (human (endogenous in NT2)) (UniProt Q6W2J9)

Substance	binding [1]	binding [2]	binding [3]	binding [4]	binding [5]
BCOR (from UniProt Q6W2J9 1-1755)	no binding	no binding	binds	–	–
CSNK2A1 (from UniProt P68400 1-391)	–	–	–	binds	–
DDB1 (from UniProt Q16531 1-1140)	–	–	binds	–	–
L3MBTL2 (from UniProt Q969R5 1-705)	–	–	no binding	–	–
NANOG (from UniProt Q9H9S0 1-305)	–	–	binds	–	–
PCGF1 (from UniProt Q9BSM1 1-259)	binds	–	–	binds	binds
PCGF4 (BMI1) (from UniProt P35226 1-326)	–	–	–	binds	–
RNF2 (from UniProt Q99496 1-336)	no binding	–	–	–	binds
SKP1 (from UniProt P63208 1-163)	no binding	no binding	binds	–	binds
SMARCC2 (from UniProt Q8TAQ2 1-1214)	–	–	binds	–	–
USP7 (from UniProt Q93009 1-1102)	no binding	no binding	binds	binds	binds
